We go through one substance from article PMC6708125.

Sequences of proteins named here, by UniProt entry; tags and fusion partners are left off.
UniProt Q53GL0: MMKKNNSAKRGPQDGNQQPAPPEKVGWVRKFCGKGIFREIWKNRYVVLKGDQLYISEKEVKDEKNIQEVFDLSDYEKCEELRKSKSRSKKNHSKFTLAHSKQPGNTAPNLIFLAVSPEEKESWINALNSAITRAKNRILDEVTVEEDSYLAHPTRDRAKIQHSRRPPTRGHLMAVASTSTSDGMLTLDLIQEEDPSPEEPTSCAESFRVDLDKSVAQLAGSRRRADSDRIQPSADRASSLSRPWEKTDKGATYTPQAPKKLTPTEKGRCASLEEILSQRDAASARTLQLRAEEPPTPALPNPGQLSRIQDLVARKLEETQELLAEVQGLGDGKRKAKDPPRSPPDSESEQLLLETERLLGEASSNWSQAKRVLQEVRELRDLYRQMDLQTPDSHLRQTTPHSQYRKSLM

For the test, the target named is T1, HA-labeled Nuclear factor E2-related factor 2 (HA-Nrf2) (UniProt Q16236).
T1 sequence: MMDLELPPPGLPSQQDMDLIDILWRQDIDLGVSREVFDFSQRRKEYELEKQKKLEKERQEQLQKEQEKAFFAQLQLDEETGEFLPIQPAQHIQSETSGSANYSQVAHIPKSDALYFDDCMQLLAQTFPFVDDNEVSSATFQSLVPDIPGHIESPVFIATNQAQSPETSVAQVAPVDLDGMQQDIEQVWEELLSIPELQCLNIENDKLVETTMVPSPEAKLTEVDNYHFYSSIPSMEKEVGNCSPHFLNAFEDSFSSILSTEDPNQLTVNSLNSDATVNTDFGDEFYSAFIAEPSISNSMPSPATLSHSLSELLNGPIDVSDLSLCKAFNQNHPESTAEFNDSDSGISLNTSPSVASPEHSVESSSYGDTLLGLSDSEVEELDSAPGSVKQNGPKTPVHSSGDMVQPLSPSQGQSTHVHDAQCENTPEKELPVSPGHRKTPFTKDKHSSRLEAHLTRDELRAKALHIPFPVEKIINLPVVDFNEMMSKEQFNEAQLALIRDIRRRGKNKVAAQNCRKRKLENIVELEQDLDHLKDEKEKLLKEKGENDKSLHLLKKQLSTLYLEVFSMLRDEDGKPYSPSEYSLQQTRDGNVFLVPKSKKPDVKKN
The test can be described thus: co-IP; Flag-CKIP-1 and HA-Nrf2 plasmids transfected into HRECs for 24 h; RIPA lysate incubated with protein A-Sepharose at 4 °C for 1 h; SDS-PAGE and blots with anti-Flag and anti-HA.

Results are given in words; binding and its absence hold for the method and conditions named. In cells and extracts the contact can be indirect. Some binding calls cover weakened binding; strength is not graded here. Where a sequence is shown, tags or fusion partners need not be part of it.

In the case of “Flag-labeled Casein kinase 2 interacting protein-1 (Flag-CKIP-1) (from UniProt Q53GL0 1-409)”, the binding result is “binds”.
